Reference: doi:10.1101/2025.09.25.678588

Assays:
Test in all cases: EMSA
[1] = tested on: FadR1RO (Rhodococcus opacus PD630); conditions: no acyl-CoA, binding at estimated uM protein
[2] = tested on: FadR2RO (Rhodococcus opacus PD630); conditions: no acyl-CoA, binding at estimated uM protein, small shift
[3] = tested on: MabRRO (Rhodococcus opacus PD630); conditions: 5 mM Mg2+

Measured: binding result

TTAACACCAGTCACACCCTTCCCATTCGGAGAAGCAGGGCTGTAACGAACGTCTGTCCAGATTCGATGCGAGGACCCCACGTGCAATTTTGTGGGAACCCAACAAATCCGCCGACAAAGGTTCATCCGCAACGACATCTCGCGGCACGCCGTTGACGGTGTTCTCTTGAAGAGTGATTTCGTTGCTCGCCCCGGGTCAGGGCTCTCAGACTCCCGGCATGCTCATCCCTTGGTTGGAGCTGCCGGGTTCTCATGACCGTGTCGCACTGTGGTCGAAGGCTGCCGGCCTCGA (double strand) [fasII (fabD) promoter EMSA probe]
binds: [1] | [2] | [3]; 45 uM arachidoyl-CoA, complex more pronounced than without ligand | [3]; no acyl-CoA, binding also in nM range, modest shift

The exact form of at least one protein or probe is not confirmed.
